# Data taken from PubChem BioAssay (NCATS).
# The shares of active, inactive and inconclusive entries below differ from those in the screen. For some of these results: Potencies beside an inconclusive call are fits to weak or partial responses and may not hold up. Calls of active or inactive are those of the source. The call rests on the fitted dose curve; in most records, active means well fitted curve in the direction sought with a large enough effect; inconclusive means small, poorly fitted or top-dose-only effect, or another doubt; inactive means no such curve, though single readings can be large; an effect the other way counts as inactive or inconclusive.
# Tests used:
# [1] = Quantitative High-Throughput drug screen in 47 multiple myeloma cell lines against the NCATS MIPE library collection: ARP1_JJKsccF8 cell viability assay (AID 1918928; further: nearly all actives have a fitted effect of over 40% in size); settings: ARP1 myeloma cells viability, CellTiter-Glo ATP, 48 h; viability: at 45.8 µM (top of the series)
# Procedure, shortened: (§1)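 Here, 48 h treatment with MIPE 4.0 agents at 37 °C preceded an ATP luminescence read. Plating density was 500 cells per well.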
# [2] = Quantitative High-Throughput drug screen in 47 multiple myeloma cell lines against the NCATS MIPE library collection: Karpas620_DSMZ cell viability assay (AID 1918959); settings: Karpas620 myeloma viability, CellTiter-Glo ATP luminescence, 48 h; viability (% of DMSO): at 45.8 µM (top of the series); further: nearly all actives have a fitted effect of over 30% in size
# Procedure, shortened: (§2)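 Myeloma cell lines, 500 cells per well, exposed to MIPE 4.0 library compounds for 48 h at 37C, 5% CO2. Viability from ATP by CellTiter-Glo luminescence; normalised to DMSO (100%) and media-only (0%) wells.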
# [3] = Quantitative High-Throughput drug screen in 47 multiple myeloma cell lines against the NCATS MIPE library collection: KMM1_JCRB cell viability assay (AID 1918960); settings: KMM1 myeloma viability, CellTiter-Glo ATP luminescence, 48 h; viability (% of DMSO): at 45.8 µM (top of the series); further: nearly all actives have a fitted effect of over 30% in size;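 on viability (% of DMSO): 100% = DMSO-treated cells and 0% = medium-only wells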
# Procedure, shortened: as §1
# [4] = Quantitative High-Throughput drug screen in 47 multiple myeloma cell lines against the NCATS MIPE library collection: Karpas417_ECACC cell viability assay (AID 1918961); settings: Karpas417 myeloma viability, CellTiter-Glo ATP luminescence, 48 h; viability (% of DMSO): at 45.8 µM (top of the series) unless noted
# Procedure, shortened: as §2
# [5] = Quantitative High-Throughput drug screen in 47 multiple myeloma cell lines against the NCATS MIPE library collection: KHM11_PLB cell viability assay (AID 1918962); settings: KHM11 myeloma cell viability, CellTiter-Glo ATP luminescence, 48 h; viability, % of DMSO control: at 45.8 µM (top of the series); further: nearly all actives have a fitted effect of over 35% in size
# Procedure, shortened: as §2
# [6] = Quantitative High-Throughput drug screen in 47 multiple myeloma cell lines against the NCATS MIPE library collection: JIM1_ECACC cell viability assay (AID 1918964); settings: JIM1 myeloma viability, CellTiter-Glo ATP luminescence, 48 h; viability (% of DMSO): at 45.8 µM (top of the series)
# Procedure, shortened: as §2
# [7] = Quantitative High-Throughput drug screen in 47 multiple myeloma cell lines against the NCATS MIPE library collection: INA6_PLB cell viability assay (AID 1918965; further: nearly all actives have a fitted effect of over 55% in size); settings: INA6 myeloma viability, CellTiter-Glo ATP luminescence, 48 h; viability (% of control): at 45.8 µM (top of the series)
# Procedure, shortened: as §2
# [8] = Quantitative High-Throughput drug screen in 47 multiple myeloma cell lines against the NCATS MIPE library collection: ARD_JJKsccE7 cell viability assay (AID 1918929); settings: ARD myeloma cell line viability, CellTiter-Glo, 48 h; viability: at 45.8 µM (top of the series) unless noted
# Procedure, shortened: as §2
# [9] = Quantitative High-Throughput drug screen in 47 multiple myeloma cell lines against the NCATS MIPE library collection: JIM3_ECACC cell viability assay (AID 1918963; further: nearly all actives have a fitted effect of over 35% in size); settings: JIM3 myeloma viability, CellTiter-Glo ATP, 48 h; viability, percent of control: at 45.8 µM (top of the series)
# Procedure, shortened: as §2
# Potency means the concentration at half of the fitted maximal effect.
smiles,measurement,setting,value
CCOC(=O)[C@H]1O[C@H]1C(=O)N[C@@H](CC(C)C)C(=O)NCCC(C)C,Potency,[1],"inconclusive: 0.105 µM [cytotoxic, full curve, poor fit]"
same,Potency,[2],"inconclusive: 1.32 µM [cytotoxic, partial curve, poor fit]"
same,Potency,[3],inactive
same,Potency,[4],"inconclusive: 0.743 µM [cytotoxic, partial curve, poor fit]"
same,Potency,[5],inactive
same,Potency,[6],"inconclusive: 20.9 µM [cytotoxic, partial curve, poor fit]"
same,Potency,[7],inactive
C=C1[C@H](n2cnc3c(=O)[nH]c(N)nc32)C[C@H](O)[C@H]1CO,Potency,[1],"inconclusive: 18.7 µM [cytotoxic, partial curve, poor fit]"
same,Potency,[2],"inconclusive: 4.18 µM [cytotoxic, partial curve, poor fit]"
same,Potency,[4],"inconclusive: 5.26 µM [cytotoxic, partial curve, poor fit]"
same,Potency,[5],active: 4.69 µM
same,Potency,[6],"inconclusive: 2.96 µM [cytotoxic, full curve, poor fit]"
COc1cc2ncnc(Nc3cccc(Cl)c3)c2cc1OC,Potency,[1],active: 26.4 µM
same,Potency,[2],"inconclusive: 29.6 µM [cytotoxic, partial curve, poor fit]"
same,Potency,[4],"inconclusive: 33.2 µM [cytotoxic, partial curve, poor fit]"
same,Potency,[5],"inconclusive: 33.2 µM [cytotoxic, single point]"
same,Potency,[6],"inconclusive: 23.5 µM [cytotoxic, partial curve, poor fit]"
same,Potency,[7],"inconclusive: 18.7 µM [cytotoxic, partial curve, poor fit]"
c1ccc(CNc2nc(NCc3ccccc3)c3ccccc3n2)cc1,Potency,[1],"inconclusive: 29.6 µM [cytotoxic, single point]"
same,Potency,[3],active: 4.69 µM
same,Potency,[4],"inconclusive: 8.33 µM [cytotoxic, partial curve, poor fit]"
same,Potency,[6],active: 8.33 µM
C[C@@H]1COC(Nc2ccc3ncnc(Nc4ccc(OCc5nccs5)c(Cl)c4)c3c2)=N1,Potency,[1],"inconclusive: 18.7 µM [cytotoxic, partial curve]"
same,Potency,[2],active: 14.8 µM
same,Potency,[4],"inconclusive: 16.6 µM [cytotoxic, partial curve, poor fit]"
same,Potency,[5],active: 16.6 µM
same,Potency,[6],active: 13.2 µM
same,Potency,[7],active: 4.69 µM
COc1cc(C=CC(=O)CC(=O)C=Cc2ccc(O)c(OC)c2)ccc1O,Potency,[1],active: 8.55 µM
same,Potency,[4],active: 4.81 µM
same,Potency,[6],active: 3.4 µM
COC(=O)c1ccc2c(C(=Nc3ccc(N(C)C(=O)CN4CCN(C)CC4)cc3)c3ccccc3)c(O)[nH]c2c1,Potency,[8],"inconclusive: 0.833 µM [cytotoxic, partial curve, poor fit]"
same,Potency,[2],"inconclusive: 0.0042 µM [cytotoxic, full curve, poor fit]"
same,Potency,[4],active: 0.187 µM
same,Potency,[5],active: 26.4 µM
same,Potency,[6],active: 0.0469 µM
CNc1nc(-c2ccc3c(N)n[nH]c3c2)cc(N2C[C@@H](C(=O)NC3CCCCC3)CC[C@@H]2C)n1,Potency,[1],active: 11.8 µM
same,Potency,[3],"inconclusive: 13.2 µM [cytotoxic, partial curve]"
same,viability (% of DMSO),[4],inconclusive: 7.86% [cytotoxic]
same,Potency,[5],"inconclusive: 1.87 µM [cytotoxic, partial curve]"
same,Potency,[6],"inconclusive: 4.69 µM [cytotoxic, partial curve, poor fit]"
CN(C)CCOc1ccc(-c2nc(-c3ccc4c(c3)CCC4=NO)c(-c3ccncc3)[nH]2)cc1,Potency,[8],active: 23.5 µM
same,Potency,[3],active: 14.8 µM
same,Potency,[4],active: 9.35 µM
same,Potency,[6],active: 18.7 µM
C[N+](C)([O-])CCNc1ccc(NCC[N+](C)(C)[O-])c2c1C(=O)c1c(O)ccc(O)c1C2=O,viability,[8],inconclusive: 102% [cytotoxic]
same,Potency,[3],inactive
same,viability (% of DMSO),[4],inconclusive: 197%
same,Potency,[5],"inconclusive: 0.0026 µM [rising, full curve, poor fit]"
same,Potency,[6],"inconclusive: 33.2 µM [rising, single point]"
Oc1cc2c(cc1O)C1c3ccc(O)c(O)c3OCC1(O)C2 (stereo unspecified),Potency,[8],inactive
same,Potency,[3],"inconclusive: 0.0012 µM [rising, full curve]"
same,Potency,[4],"inconclusive: 0.0132 µM [cytotoxic, full curve, poor fit]"
same,Potency,[5],inactive
same,Potency,[6],"inconclusive: 37.2 µM [rising, single point]"
Nc1ccn([C@@H]2O[C@H](CO)[C@H](O)C2(F)F)c(=O)n1,Potency,[4],"inconclusive: 37.2 µM [rising, partial curve, poor fit]"
same,Potency,[5],active: 5.9 µM
same,Potency,[7],active: 0.0526 µM
COc1ccc(C2CNC(=O)C2)cc1OC1CCCC1 (stereo unspecified),Potency,[8],inactive
same,Potency,[3],inconclusive: 0.001 µM
same,Potency,[4],inactive
same,Potency,[5],"inconclusive: 0.0083 µM [rising, full curve, poor fit]"
same,Potency,[6],inactive
same,Potency,[7],"inconclusive: 6.62 µM [cytotoxic, full curve, poor fit]"
COc1ccc(Nc2cc(-c3cnc(N)nc3)nc(N3CCOCC3)n2)cn1,Potency,[4],"inconclusive: 37.2 µM [rising, partial curve, poor fit]"
same,Potency,[9],active: 3.72 µM
same,Potency,[6],"inconclusive: 2.64 µM [cytotoxic, full curve, poor fit]"
CC[C@@]1(O)C(=O)OCc2c1cc1n(c2=O)Cc2cc3c(CN(C)C)c(O)ccc3nc2-1,Potency,[8],active: 2.64 µM
same,Potency,[4],active: 0.743 µM
same,Potency,[5],active: 1.66 µM
same,Potency,[6],active: 0.743 µM
CCOC(=O)N1CCN([N+]([O-])=NOc2ccc([N+](=O)[O-])cc2C#N)CC1,Potency,[2],"inconclusive: 0.418 µM [cytotoxic, full curve]"
same,Potency,[4],active: 0.0662 µM
same,Potency,[5],"inconclusive: 0.418 µM [cytotoxic, full curve]"
same,Potency,[6],"inconclusive: 0.332 µM [cytotoxic, full curve]"
Nc1nc2c(c(=O)[nH]1)N(C=O)[C@H](CNc1ccc(C(=O)N[C@@H](CCC(=O)O)C(=O)O)cc1)CN2,Potency,[8],"inconclusive: 0.0021 µM [cytotoxic, full curve, poor fit]"
same,Potency,[5],inactive
same,Potency,[6],inactive
same,Potency,[7],inactive
COc1cccc2c1C(=O)c1c(O)c3c(c(O)c1C2=O)C[C@@](O)(C(=O)CO)C[C@H]3O[C@H]1C[C@H](N)[C@H](O)[C@H](C)O1,Potency,[8],active: 2.96 µM
same,Potency,[4],active: 1.32 µM
same,Potency,[6],active: 1.05 µM
CCN(CC)CCCCNc1ncc2cc(-c3cc(OC)cc(OC)c3)c(NC(=O)NC(C)(C)C)nc2n1,Potency,[4],"inconclusive: 20.9 µM [cytotoxic, partial curve, poor fit]"
same,Potency,[5],active: 9.35 µM
same,Potency,[6],active: 20.9 µM
Cc1ccc(S(=O)(=O)Nc2cc(Cl)ccc2C(=O)Nc2nc(-c3ccccc3)cs2)cc1,Potency,[2],"inconclusive: 10.5 µM [cytotoxic, single point]"
same,Potency,[3],active: 4.18 µM
same,Potency,[4],"inconclusive: 6.62 µM [cytotoxic, partial curve, poor fit]"
same,Potency,[5],"inconclusive: 6.62 µM [cytotoxic, full curve]"
same,Potency,[6],"inconclusive: 11.8 µM [cytotoxic, single point]"
same,Potency,[7],active: 8.33 µM

# Four entries from above, with tabs:
smiles	measurement	setting	value
CC[C@@]1(O)C(=O)OCc2c1cc1n(c2=O)Cc2cc3c(CN(C)C)c(O)ccc3nc2-1	Potency	[8]	active: 2.64 µM
same	Potency	[4]	active: 0.743 µM
same	Potency	[5]	active: 1.66 µM
same	Potency	[6]	active: 0.743 µM

# Three entries from above, bar-delimited.
smiles | measurement | setting | value
Cc1ccc(S(=O)(=O)Nc2cc(Cl)ccc2C(=O)Nc2nc(-c3ccccc3)cs2)cc1 | Potency | [5] | inconclusive: 6.62 µM [cytotoxic, full curve]
same | Potency | [6] | inconclusive: 11.8 µM [cytotoxic, single point]
same | Potency | [7] | active: 8.33 µM
